Reference: PubChem BioAssay AID1259287 (Sanger Institute, 2017)

Purpose: 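Retest single siRNAs that may add killing with three colorectal cancer drugs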 (follow-up of hits)
Cell system: human HCT15 colorectal cancer cells
Reagent: single siRNA against human genes
Challenge: BYL719 1 µM, cetuximab 5 µg/ml or trametinib 10 nM, or DMSO vehicle
Measured: 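Survival scaled to control siRNA wells, then a synergy score per drug giving combined effect beyond the expected one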
Reading the numbers: synergy score with BYL719 and synergy score with cetuximab and synergy score with trametinib: higher = stronger combined killing than expected
Call rule: 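Called active when the synergy score is above 0.10 for one or more of the three drugs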
Meaning of the calls: active = synergy with at least one drug; inactive = no synergy with any drug
This is a random part of 160 reagents. 19 of all reagents (12%) were called active. 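Viability seems capped at 1; calls apply to HCT15 cells only, not to validation across other lines.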 Not all columns of the deposit are shown. No sequences are given here. Not given: the amount of reagent, the time to read-out.

Target gene	PubChem SID	synergy score with BYL719	synergy score with cetuximab	synergy score with trametinib	call
RPS6KA4	SID56476603	-0.023	0.0117	0.0385	inactive
RPS6KA4	SID56476604	-0.0692	-0.12	0.0108	inactive
RPS6KA4	SID56476605	-0.211	0.000181	-0.0842	inactive
RPS6KA4	SID56476606	-0.123	-0.191	-0.0163	inactive
SF3B1	SID152148776	-0.0536	-0.00549	-0.0197	inactive
SF3B1	SID152150545	-0.017	-0.00483	0.0258	inactive
SF3B1	SID152153930	0.0106	-0.0618	-0.00499	inactive
SF3B1	SID152156441	-0.0525	-0.123	-0.0389	inactive
CDK6	SID56475655	-0.0412	-0.0144	0.133	active
CDK6	SID56475656	-0.00239	-0.177	0.0247	inactive
CDK6	SID56475657	-0.0793	-0.0444	0.0465	inactive
CDK6	SID56475658	0.0817	0.0245	0.143	active
IRAK3	SID56476711	-0.154	-0.0504	-0.0223	inactive
IRAK3	SID56476712	0.137	0.126	0.0531	active
IRAK3	SID56476713	-0.152	-0.0897	-0.07	inactive
IRAK3	SID56476714	-0.195	-0.0964	0.0567	inactive
AK2	SID56477903	-0.0979	-0.107	-0.174	inactive
AK2	SID56477904	-0.0173	-0.0418	-0.0253	inactive
AK2	SID56477905	-0.173	-0.092	-0.213	inactive
AK2	SID56477906	-0.101	-0.165	-0.0327	inactive
KCNH8	SID134236349	-0.235	-0.153	-0.2	inactive
KCNH8	SID134236350	0.0405	-0.0699	0.0107	inactive
KCNH8	SID134236351	-0.0429	-0.154	0.0682	inactive
KCNH8	SID134236352	0.0603	-0.0294	0.109	active
SYNCRIP	SID134270601	0.0255	-0.045	0.127	active
SYNCRIP	SID134270602	-0.0352	-0.147	0.0176	inactive
SYNCRIP	SID134270603	0.0287	-0.0831	0.00221	inactive
SYNCRIP	SID134270604	-0.106	-0.203	-0.133	inactive
PIK3CA	SID56475149	-0.117	-0.0765	0.0827	inactive
PIK3CA	SID56475150	-0.0138	0.0935	0.123	active
PIK3CA	SID135611211	-0.115	-0.0502	0.099	inactive
PIK3CA	SID135611212	-0.127	0.0719	0.0836	inactive
PIM1	SID56476199	0.031	0.101	0.0967	active
PIM1	SID56476200	-0.113	-0.0817	-0.00236	inactive
PIM1	SID56476201	-0.261	-0.152	-0.31	inactive
PIM1	SID56476202	-0.105	-0.186	-0.139	inactive
PAK1	SID56475940	-0.0722	-0.228	-0.0183	inactive
PAK1	SID56475941	0.0482	-0.0697	0.0269	inactive
PAK1	SID56475942	0.105	-0.128	0.119	active
PAK1	SID135611339	0.00197	-0.142	-0.0967	inactive
CRIM1	SID134243173	0.0857	-0.0842	-0.00525	inactive
CRIM1	SID134243174	-0.251	-0.0617	-0.279	inactive
CRIM1	SID134243175	0.00956	0.026	-0.0817	inactive
CRIM1	SID134243176	-0.0599	-0.158	-0.224	inactive
BRAF	SID56475867	-0.00394	-0.0286	-0.139	inactive
BRAF	SID56475868	0.0228	-0.13	0.055	inactive
BRAF	SID56475869	-0.0077	0.042	-0.0243	inactive
BRAF	SID56475870	-0.0171	-0.174	-0.0557	inactive
IRAK1	SID56476703	0.0363	0.0381	0.405	active
IRAK1	SID56476704	0.0782	-0.0172	0.026	inactive
IRAK1	SID56476705	0.0579	0.0481	0.0848	inactive
IRAK1	SID56476706	0.168	0.00419	-0.0666	active
IKBKB	SID56475899	-0.0853	0.0336	-0.213	inactive
IKBKB	SID56475900	0.0238	0.0418	-0.0726	inactive
IKBKB	SID56475901	-0.0753	-0.0659	-0.0975	inactive
IKBKB	SID56475902	-0.16	-0.0793	-0.0702	inactive
MARK3	SID56475931	-0.0302	-0.0444	0.0786	inactive
MARK3	SID56475932	-0.174	-0.12	0.0127	inactive
MARK3	SID56475933	-0.127	-0.113	-0.181	inactive
MARK3	SID56475934	-0.00899	-0.0281	0.0943	inactive

Already shown: an excerpt of the list.
Target gene	PubChem SID	synergy score with BYL719	synergy score with cetuximab	synergy score with trametinib	call
BRAF	SID56475867	-0.00394	-0.0286	-0.139	inactive
BRAF	SID56475868	0.0228	-0.13	0.055	inactive
BRAF	SID56475869	-0.0077	0.042	-0.0243	inactive
BRAF	SID56475870	-0.0171	-0.174	-0.0557	inactive
IRAK1	SID56476703	0.0363	0.0381	0.405	active
